Source: the supplement of paper PMC12823440, “Inhibitors supercharge kinase turnover through native proteolytic circuits” (Nature, 2025)
Structures can show the parent of a compound that is named as a salt. Some of the results follow. The calls rarely recur for the same compound in another form.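 Kinases were expressed as nanoluciferase fusions in K562 cells and luminescence was read every 4 h between 2 and 18 h as percent of control, DMSO set to 100% and a positive control to 0%. A time point counts as decreased when the signal drops significantly (2 sigma). The hit call is the authors' own, does not follow from the count of time points alone, and its rule is not shown.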

By UniProt entry, the sequences of proteins in these tests, tags left out.
UniProt O96017, whole entry: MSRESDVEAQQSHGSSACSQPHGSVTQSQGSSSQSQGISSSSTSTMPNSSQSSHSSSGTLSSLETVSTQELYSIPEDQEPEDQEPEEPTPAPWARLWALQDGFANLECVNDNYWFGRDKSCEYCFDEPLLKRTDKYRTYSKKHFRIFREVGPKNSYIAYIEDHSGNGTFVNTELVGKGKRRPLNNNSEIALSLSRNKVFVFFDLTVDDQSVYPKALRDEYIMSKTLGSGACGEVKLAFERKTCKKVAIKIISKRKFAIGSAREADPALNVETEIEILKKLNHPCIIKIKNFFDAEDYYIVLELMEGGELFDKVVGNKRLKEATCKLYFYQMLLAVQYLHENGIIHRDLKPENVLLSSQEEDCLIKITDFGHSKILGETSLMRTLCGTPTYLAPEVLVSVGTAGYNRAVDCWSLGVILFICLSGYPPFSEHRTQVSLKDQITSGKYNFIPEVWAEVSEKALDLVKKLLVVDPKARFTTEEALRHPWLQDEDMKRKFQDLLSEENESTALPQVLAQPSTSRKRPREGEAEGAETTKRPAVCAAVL

target: CHEK2 (UniProt O96017); experiment: number of time points (of 5) at which kinase-Nluc abundance scored as decreased, DMSO-normalised (count); higher = more persistent destabilization; settings: K562; 2-18 h

Structure (SMILES)	number of time points
C[C@@H]1CCN(C(=O)CC#N)C[C@@H]1N(C)c1ncnc2[nH]ccc12 [Tofacitinib] (10 µM)	0
CC#CC(=O)N1CC[C@@H](n2c(=O)n(-c3ccc(Oc4ccccc4)cc3)c3c(N)ncnc32)C1 [Tirabrutinib (hydrochloride)] (10 µM)	0
Cc1ccc(C(=O)Nc2ccc(Oc3cc4cnn(C)c4cc3-c3cn[nH]c3)c(F)c2)c(=O)n1-c1ccc(F)cc1 [Merestinib] (2.5 µM)	0
Cc1cc(Nc2ncnc3ccc(NC4=NC(C)(C)CO4)cc23)ccc1Oc1ccn2ncnc2c1 [Tucatinib (hemiethanolate)] (2.5 µM)	0
C[C@@]1(c2ncncc2F)NC(=O)c2cc(-c3cn[nH]c3)ccc21 (10 µM)	0
COc1cc(Nc2ncc(F)c(Nc3ccc4c(n3)NC(=O)C(C)(C)O4)n2)cc(OC)c1OC (10 µM)	0
Cc1cc2ncc(-c3ccc(O)c(O)c3)nc2cc1C [Tyrphostin AG1433] (10 µM)	0
C=CC(=O)Nc1cccc(Nc2nc(Nc3ccc(N4CCN(C(C)=O)CC4)cc3OC)ncc2C(F)(F)F)c1 [Rociletinib hydrobromide] (10 µM)	0
Cc1cc(Nc2ncnc3ccc(NC4=NC(C)(C)CO4)cc23)ccc1Oc1ccn2ncnc2c1 [Tucatinib] (2.5 µM)	0
CCc1cc2c(cc1N1CCC(N3CCOCC3)CC1)C(C)(C)c1[nH]c3cc(C#N)ccc3c1C2=O [Alectinib (Hydrochloride)] (2 µM)	0
Cn1nccc1Nc1nccc(-c2ccn([C@H](CO)c3ccc(Cl)c(F)c3)c(=O)c2)n1 [Ravoxertinib hydrochloride] (10 µM)	0
COc1cc2c(N3CCN(C(=O)Nc4ccc(OC(C)C)cc4)CC3)ncnc2cc1OCCCN1CCCCC1 [Tandutinib] (10 µM)	0
CC#CC(=O)N1CC[C@@H](n2c(=O)n(-c3ccc(Oc4ccccc4)cc3)c3c(N)ncnc32)C1 [Tirabrutinib] (10 µM)	0
C=CC(=O)Nc1cccc(Nc2nc(Nc3ccc(N4CCN(C(C)=O)CC4)cc3OC)ncc2C(F)(F)F)c1 [Rociletinib] (10 µM)	0
COc1cc(Nc2ncc(F)c(Nc3ccc4c(n3)N(COP(=O)(O)O)C(=O)C(C)(C)O4)n2)cc(OC)c1OC [Fostamatinib Disodium] (10 µM)	0
COc1cc2c(N3CCN(C(=O)Nc4ccc(OC(C)C)cc4)CC3)ncnc2cc1OCCCN1CCCCC1 [Tandutinib (hydrochloride)] (10 µM)	0
COc1cc(Nc2ncc(F)c(Nc3ccc4c(n3)N(COP(=O)(O)O)C(=O)C(C)(C)O4)n2)cc(OC)c1OC [Fostamatinib (disodium hexahydrate)] (10 µM)	0
COc1cc2nccc(Oc3ccc(NC(=O)NC4CC4)c(Cl)c3)c2cc1C(N)=O [Lenvatinib (mesylate)] (10 µM)	2
Oc1ccc(Nc2nc(-c3ccc(Cl)cc3)cs2)cc1 (10 µM)	0
NC(=O)c1nc(Nc2ccccc2)sc1NC(=O)C1CCCCC1 (10 µM)	0

Structure (SMILES)	number of time points
CC1=C(C(=O)O)N2C(=O)[C@@H](NC(=O)[C@H](N)C3=CCC=CC3)[C@H]2SC1 [Cephradine] (10 µM)	0
Cc1ccc(C(=O)Nc2ccc(Oc3cc4cnn(C)c4cc3-c3cn[nH]c3)c(F)c2)c(=O)n1-c1ccc(F)cc1 [Merestinib dihydrochloride] (2.5 µM)	0
Cc1ccc2nc(NCCN)c3ncc(C)n3c2c1 (2.5 µM)	0
CC(=O)NC1CC(n2cnc(NC(=O)Cc3ccc4ccccc4c3)c2)C1 (centres undefined) (10 µM)	0
COc1cc2nccc(Oc3ccc(NC(=O)NC4CC4)c(Cl)c3)c2cc1C(N)=O [Lenvatinib] (10 µM)	0
Cn1cnc2c(F)c(Nc3ccc(Br)cc3Cl)c(C(=O)NOCCO)cc21 [Selumetinib (sulfate)] (10 µM)	0
CCN1CCN(Cc2ccc(Nc3ncc(F)c(-c4cc(F)c5nc(C)n(C(C)C)c5c4)n3)nc2)CC1 [Abemaciclib] (2 µM)	0
C[C@@H]1CCN(C(=O)CC#N)C[C@@H]1N(C)c1ncnc2[nH]ccc12 [Tofacitinib (citrate)] (10 µM)	0
Cn1nccc1Nc1nccc(-c2ccn([C@H](CO)c3ccc(Cl)c(F)c3)c(=O)c2)n1 [Ravoxertinib] (10 µM)	0
COc1cc(Nc2ncc(F)c(Nc3ccc4c(n3)NC(=O)C(C)(C)O4)n2)cc(OC)c1OC [R406 (free base)] (10 µM)	0
S=C(SSC(=S)N1CCOCC1)N1CCOCC1 (10 µM)	3
CC1CCc2c(cc(Br)c(F)c2Br)N1C=O (centres undefined) (10 µM)	0
Cc1[nH]c(/C=C2\C(=O)Nc3ccccc32)c(C)c1CCC(=O)O [(Z)-Orantinib] (10 µM)	0
CCN1CCN(Cc2ccc(Nc3ncc(F)c(-c4cc(F)c5nc(C)n(C(C)C)c5c4)n3)nc2)CC1 [Abemaciclib (methanesulfonate)] (10 µM)	0
Cn1cnc2c(F)c(Nc3ccc(Br)cc3Cl)c(C(=O)NOCCO)cc21 [Selumetinib] (10 µM)	0
CCc1cc2c(cc1N1CCC(N3CCOCC3)CC1)C(C)(C)c1[nH]c3cc(C#N)ccc3c1C2=O [Alectinib] (10 µM)	0
C=C(CC[C@@H](C(=O)O)[C@H]1[C@H](O)C[C@@]2(C)C3=C(CC[C@]12C)[C@@]1(C)CC[C@H](OC(C)=O)C(C)(C)[C@@H]1CC3)C(C)C [Pachymic acid] (10 µM)	0
Cc1[nH]c(/C=C2\C(=O)Nc3ccccc32)c(C)c1CCC(=O)O [Orantinib] (10 µM)	0
C=CC(=O)Nc1ccc(CN2C(=O)N(c3cc(OC)cc(OC)c3)Cc3cnc(Nc4ccc(N5CCN(C)CC5)cc4)nc32)cc1 (2.5 µM)	0
